PubChem BioAssay AID1508597 | Cure First, 2020
Aim: 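Genes whose silencing sensitises or protects ovarian cancer cells against rucaparib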 (primary screen). Cell system: human ovarian carcinoma lines grown from tumours: OCI-P5x (papillary serous) and OCI-C5x (clear cell). Knock-down reagent: siRNA pool against human genes, 1.25 pmol siRNA per well. Duration: 72 h or 96 h, depending on the cell culture. Treatment: rucaparib 20 µM (about IC30) or vehicle, present until read-out. Rucaparib or vehicle: Rucaparib. Cell line: OCI-C5x (clear cell). Measurement: 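ATP luminescence measured at 72 or 96 h according to the culture, then normalised and expressed as percent viability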. Direction: viability, normalised: higher = more viable cells remaining. Hit rule: 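a well counts as a hit if its normalised viability is under 80 percent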. Calls: active = viability under 80%; inactive = viability 80% or more.
Shown is a random part of the about 2,100 reagents, in one setting of the screen. 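Calls flag viability under 80% in either arm, not effects specific to rucaparib; the reference for percent is not stated.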 Some reagents were tested in more than one well and are listed for each. No sequences are given here. Not stated in the record: the 100% reference.

Target gene | technical replicate | viability, normalised (%) | call
CXXC5 | 1 | 93 | inactive
CXXC5 | 2 | 74.8 | active
CXXC5 | 3 | 75 | active
STK36 | 1 | 61.1 | active
STK36 | 2 | 48.2 | active
STK36 | 3 | 55.6 | active
RPA4 | 1 | 57.9 | active
RPA4 | 2 | 43.8 | active
RPA4 | 3 | 44.6 | active
EME2 | 1 | 63.9 | active
EME2 | 2 | 71.8 | active
EME2 | 3 | 76.6 | active
BBS7 | 1 | 74.4 | active
BBS7 | 2 | 58.3 | active
BBS7 | 3 | 45.6 | active
TRIM68 | 1 | 69.8 | active
TRIM68 | 2 | 51.1 | active
TRIM68 | 3 | 46 | active
DDX11 | 1 | 42.1 | active
DDX11 | 2 | 30.9 | active
DDX11 | 3 | 33 | active
NHERF1 | 1 | 33.2 | active
NHERF1 | 2 | 19.6 | active
NHERF1 | 3 | 28 | active
NEK7 | 1 | 47.9 | active
NEK7 | 2 | 44.4 | active
NEK7 | 3 | 69.5 | active
HDGF | 1 | 80.7 | inactive
HDGF | 2 | 27.2 | active
HDGF | 3 | 43.9 | active
PRKACA | 1 | 68.4 | active
PRKACA | 2 | 66.4 | active
PRKACA | 3 | 74.8 | active
LMTK2 | 1 | 56.4 | active
LMTK2 | 2 | 64.3 | active
LMTK2 | 3 | 58.3 | active
MSH6 | 1 | 78.5 | active
MSH6 | 1 | 54.8 | active
MSH6 | 2 | 47 | active
MSH6 | 2 | 73.9 | active
MSH6 | 3 | 42 | active
MSH6 | 3 | 93.5 | inactive
INTS12 | 1 | 46.6 | active
INTS12 | 2 | 37 | active
INTS12 | 3 | 59.2 | active

A portion of the results above, for reference:
Target gene | technical replicate | viability, normalised (%) | call
EME2 | 2 | 71.8 | active
EME2 | 3 | 76.6 | active
BBS7 | 1 | 74.4 | active
BBS7 | 2 | 58.3 | active
BBS7 | 3 | 45.6 | active
TRIM68 | 1 | 69.8 | active
TRIM68 | 2 | 51.1 | active

Additional results follow:
Target gene | technical replicate | viability, normalised (%) | call
FRK | 1 | 43 | active
FRK | 2 | 64.1 | active
FRK | 3 | 60.2 | active
NAP1L3 | 1 | 49.6 | active
NAP1L3 | 2 | 38.8 | active
NAP1L3 | 3 | 49.6 | active
PRKCG | 1 | 40.9 | active
PRKCG | 2 | 60 | active
PRKCG | 3 | 84.3 | inactive
MTRF1 | 1 | 61 | active
MTRF1 | 2 | 44.8 | active
MTRF1 | 3 | 54.4 | active
PDGFRB | 1 | 49.6 | active
PDGFRB | 2 | 51.3 | active
PDGFRB | 3 | 71.3 | active
H4C8 | 1 | 47.8 | active
H4C8 | 2 | 39.4 | active
H4C8 | 3 | 42.9 | active
CHD9 | 1 | 83.2 | inactive
CHD9 | 2 | 57.9 | active
CHD9 | 3 | 62.7 | active
CHMP4A | 1 | 59.5 | active
CHMP4A | 2 | 56.5 | active
CHMP4A | 3 | 38.3 | active
PCDHB16 | 1 | 46.7 | active
PCDHB16 | 2 | 42.5 | active
PCDHB16 | 3 | 33.9 | active
CTCFL | 1 | 56.4 | active
CTCFL | 2 | 57.4 | active
CTCFL | 3 | 52.8 | active
